Data on 31 targets can be found in the supplement of paper PMC12823440, “Inhibitors supercharge kinase turnover through native proteolytic circuits” (Nature, 2025).

Sequences of proteins named here, by UniProt entry; tags and fusion partners are left off. A change or cut given only in a name is not applied to a line headed by its entry.
UniProt Q08345: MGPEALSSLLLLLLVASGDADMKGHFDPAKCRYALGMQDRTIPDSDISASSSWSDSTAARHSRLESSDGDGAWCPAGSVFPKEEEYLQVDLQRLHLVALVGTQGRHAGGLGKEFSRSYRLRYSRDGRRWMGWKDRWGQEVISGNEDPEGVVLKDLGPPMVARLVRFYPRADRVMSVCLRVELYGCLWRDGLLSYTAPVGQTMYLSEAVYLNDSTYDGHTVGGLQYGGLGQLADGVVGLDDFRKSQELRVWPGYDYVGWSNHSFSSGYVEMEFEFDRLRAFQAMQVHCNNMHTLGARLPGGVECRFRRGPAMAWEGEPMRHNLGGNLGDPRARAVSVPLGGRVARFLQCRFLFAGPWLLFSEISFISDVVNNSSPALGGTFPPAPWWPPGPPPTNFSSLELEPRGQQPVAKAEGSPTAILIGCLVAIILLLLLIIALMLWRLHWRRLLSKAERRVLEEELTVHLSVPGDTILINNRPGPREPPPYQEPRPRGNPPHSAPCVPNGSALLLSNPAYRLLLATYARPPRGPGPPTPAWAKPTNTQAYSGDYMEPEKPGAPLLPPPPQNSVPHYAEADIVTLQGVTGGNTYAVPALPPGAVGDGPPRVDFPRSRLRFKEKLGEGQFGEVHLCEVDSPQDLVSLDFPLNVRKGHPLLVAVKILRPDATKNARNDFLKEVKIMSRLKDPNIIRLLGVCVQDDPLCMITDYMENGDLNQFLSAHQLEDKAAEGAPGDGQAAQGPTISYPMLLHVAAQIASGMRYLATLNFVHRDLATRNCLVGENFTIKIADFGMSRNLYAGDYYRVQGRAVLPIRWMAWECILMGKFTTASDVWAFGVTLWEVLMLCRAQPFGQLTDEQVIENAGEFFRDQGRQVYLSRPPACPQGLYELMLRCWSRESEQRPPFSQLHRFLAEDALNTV
UniProt P07947, whole entry, looked up: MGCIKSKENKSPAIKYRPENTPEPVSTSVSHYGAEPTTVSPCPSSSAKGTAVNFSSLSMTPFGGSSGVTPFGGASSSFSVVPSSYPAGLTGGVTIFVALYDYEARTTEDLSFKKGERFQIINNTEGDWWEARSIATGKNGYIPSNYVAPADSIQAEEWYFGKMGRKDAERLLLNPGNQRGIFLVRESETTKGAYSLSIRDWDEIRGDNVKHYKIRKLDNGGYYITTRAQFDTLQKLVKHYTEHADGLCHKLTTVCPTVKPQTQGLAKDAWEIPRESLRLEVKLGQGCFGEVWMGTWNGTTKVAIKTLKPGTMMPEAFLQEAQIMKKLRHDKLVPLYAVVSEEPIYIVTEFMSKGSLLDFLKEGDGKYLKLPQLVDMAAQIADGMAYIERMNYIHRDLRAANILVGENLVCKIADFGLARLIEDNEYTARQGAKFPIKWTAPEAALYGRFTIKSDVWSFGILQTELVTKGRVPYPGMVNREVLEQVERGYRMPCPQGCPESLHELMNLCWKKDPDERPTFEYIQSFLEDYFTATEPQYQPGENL
UniProt Q96GD4, whole entry: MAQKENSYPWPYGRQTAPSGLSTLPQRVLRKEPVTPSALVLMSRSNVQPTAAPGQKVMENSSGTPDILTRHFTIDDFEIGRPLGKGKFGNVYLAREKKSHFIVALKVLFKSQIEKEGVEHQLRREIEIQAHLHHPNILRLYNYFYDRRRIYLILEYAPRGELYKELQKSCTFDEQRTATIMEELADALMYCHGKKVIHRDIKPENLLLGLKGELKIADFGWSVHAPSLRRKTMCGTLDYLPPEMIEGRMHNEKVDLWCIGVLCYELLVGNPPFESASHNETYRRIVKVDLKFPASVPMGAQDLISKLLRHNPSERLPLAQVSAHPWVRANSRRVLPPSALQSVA
UniProt P10398: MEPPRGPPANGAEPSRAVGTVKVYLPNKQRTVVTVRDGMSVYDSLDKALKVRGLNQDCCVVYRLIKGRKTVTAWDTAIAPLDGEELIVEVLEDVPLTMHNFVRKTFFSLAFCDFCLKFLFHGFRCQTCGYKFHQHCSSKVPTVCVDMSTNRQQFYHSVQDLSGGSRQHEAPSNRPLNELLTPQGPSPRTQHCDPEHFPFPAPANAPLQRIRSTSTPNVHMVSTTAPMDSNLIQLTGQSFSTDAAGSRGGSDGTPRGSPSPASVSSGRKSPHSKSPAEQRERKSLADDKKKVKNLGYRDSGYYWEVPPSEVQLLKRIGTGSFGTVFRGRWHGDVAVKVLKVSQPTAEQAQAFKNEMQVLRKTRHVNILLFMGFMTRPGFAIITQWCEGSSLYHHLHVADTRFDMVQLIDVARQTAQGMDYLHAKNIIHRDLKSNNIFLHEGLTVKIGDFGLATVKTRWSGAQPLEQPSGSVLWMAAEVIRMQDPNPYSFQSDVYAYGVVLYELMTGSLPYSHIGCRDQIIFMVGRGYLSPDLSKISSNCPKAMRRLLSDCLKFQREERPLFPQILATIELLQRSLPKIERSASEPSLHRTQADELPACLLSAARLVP
UniProt O15530: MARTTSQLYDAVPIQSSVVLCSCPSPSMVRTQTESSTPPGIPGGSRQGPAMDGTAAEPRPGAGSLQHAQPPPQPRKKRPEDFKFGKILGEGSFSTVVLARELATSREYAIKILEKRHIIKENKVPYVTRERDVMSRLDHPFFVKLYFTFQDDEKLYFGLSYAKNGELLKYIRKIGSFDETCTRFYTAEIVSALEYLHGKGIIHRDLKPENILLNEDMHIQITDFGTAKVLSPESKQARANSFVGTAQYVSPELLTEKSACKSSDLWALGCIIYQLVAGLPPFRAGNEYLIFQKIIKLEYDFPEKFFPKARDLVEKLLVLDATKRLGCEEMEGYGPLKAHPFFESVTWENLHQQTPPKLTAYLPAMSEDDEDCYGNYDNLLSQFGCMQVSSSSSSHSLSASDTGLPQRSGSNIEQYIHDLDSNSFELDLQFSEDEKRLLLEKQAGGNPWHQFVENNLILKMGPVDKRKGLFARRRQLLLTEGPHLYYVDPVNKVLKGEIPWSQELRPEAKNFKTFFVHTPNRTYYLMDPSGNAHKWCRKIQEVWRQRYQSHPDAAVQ
UniProt O96013: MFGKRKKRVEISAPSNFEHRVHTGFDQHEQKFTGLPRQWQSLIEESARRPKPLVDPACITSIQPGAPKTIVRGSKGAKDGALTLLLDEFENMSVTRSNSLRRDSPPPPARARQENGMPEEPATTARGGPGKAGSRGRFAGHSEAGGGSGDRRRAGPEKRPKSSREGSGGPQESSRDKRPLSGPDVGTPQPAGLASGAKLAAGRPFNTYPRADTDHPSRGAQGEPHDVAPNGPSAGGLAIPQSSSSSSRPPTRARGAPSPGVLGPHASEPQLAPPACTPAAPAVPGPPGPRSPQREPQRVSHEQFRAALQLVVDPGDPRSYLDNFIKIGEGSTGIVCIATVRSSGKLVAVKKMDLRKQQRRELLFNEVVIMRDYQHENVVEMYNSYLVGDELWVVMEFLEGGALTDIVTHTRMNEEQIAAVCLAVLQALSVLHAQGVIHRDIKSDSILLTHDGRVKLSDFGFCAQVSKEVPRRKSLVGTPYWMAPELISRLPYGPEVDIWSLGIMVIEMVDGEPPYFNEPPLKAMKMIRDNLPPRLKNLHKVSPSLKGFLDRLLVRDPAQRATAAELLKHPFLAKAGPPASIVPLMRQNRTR
UniProt Q16620, whole entry, looked up: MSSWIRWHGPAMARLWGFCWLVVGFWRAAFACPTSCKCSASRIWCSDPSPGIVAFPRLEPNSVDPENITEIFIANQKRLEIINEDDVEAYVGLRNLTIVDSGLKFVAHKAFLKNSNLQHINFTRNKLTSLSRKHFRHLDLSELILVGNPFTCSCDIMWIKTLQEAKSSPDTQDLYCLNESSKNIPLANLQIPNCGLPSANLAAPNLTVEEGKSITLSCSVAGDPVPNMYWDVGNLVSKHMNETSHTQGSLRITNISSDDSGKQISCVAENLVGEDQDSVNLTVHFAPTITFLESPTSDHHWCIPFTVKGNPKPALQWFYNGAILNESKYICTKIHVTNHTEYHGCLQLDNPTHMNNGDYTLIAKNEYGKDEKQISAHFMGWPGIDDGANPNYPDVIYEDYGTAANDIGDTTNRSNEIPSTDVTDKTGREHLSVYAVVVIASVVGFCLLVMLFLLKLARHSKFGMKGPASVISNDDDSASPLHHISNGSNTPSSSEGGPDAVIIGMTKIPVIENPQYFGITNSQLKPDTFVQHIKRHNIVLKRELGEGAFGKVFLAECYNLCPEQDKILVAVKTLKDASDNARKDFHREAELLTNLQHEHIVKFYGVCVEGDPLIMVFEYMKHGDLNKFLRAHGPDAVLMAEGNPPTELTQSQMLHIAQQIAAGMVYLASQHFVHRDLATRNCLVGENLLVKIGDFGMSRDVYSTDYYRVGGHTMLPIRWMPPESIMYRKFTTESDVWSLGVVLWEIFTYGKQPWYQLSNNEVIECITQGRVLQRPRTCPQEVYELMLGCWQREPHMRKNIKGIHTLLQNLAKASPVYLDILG
UniProt Q00526: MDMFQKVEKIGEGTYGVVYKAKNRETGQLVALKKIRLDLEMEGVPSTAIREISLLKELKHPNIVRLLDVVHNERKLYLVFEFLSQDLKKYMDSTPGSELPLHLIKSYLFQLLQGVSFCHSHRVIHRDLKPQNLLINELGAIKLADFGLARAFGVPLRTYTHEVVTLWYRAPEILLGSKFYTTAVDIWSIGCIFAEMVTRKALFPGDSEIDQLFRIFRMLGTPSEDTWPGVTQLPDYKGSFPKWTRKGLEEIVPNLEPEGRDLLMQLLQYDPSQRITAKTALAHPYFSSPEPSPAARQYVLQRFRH
UniProt Q9BUB5: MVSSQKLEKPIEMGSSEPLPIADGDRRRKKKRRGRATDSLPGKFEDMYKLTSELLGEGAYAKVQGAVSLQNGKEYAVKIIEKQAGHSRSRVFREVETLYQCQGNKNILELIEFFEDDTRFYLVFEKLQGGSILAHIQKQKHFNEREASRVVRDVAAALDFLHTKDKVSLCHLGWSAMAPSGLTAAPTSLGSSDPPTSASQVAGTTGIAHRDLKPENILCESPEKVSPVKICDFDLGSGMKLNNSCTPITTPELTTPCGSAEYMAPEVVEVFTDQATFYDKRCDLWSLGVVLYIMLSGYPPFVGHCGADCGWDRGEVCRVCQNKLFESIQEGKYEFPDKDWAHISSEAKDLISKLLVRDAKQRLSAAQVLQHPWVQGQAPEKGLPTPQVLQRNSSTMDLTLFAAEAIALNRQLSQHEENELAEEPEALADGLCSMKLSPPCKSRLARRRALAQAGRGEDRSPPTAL
UniProt Q13546: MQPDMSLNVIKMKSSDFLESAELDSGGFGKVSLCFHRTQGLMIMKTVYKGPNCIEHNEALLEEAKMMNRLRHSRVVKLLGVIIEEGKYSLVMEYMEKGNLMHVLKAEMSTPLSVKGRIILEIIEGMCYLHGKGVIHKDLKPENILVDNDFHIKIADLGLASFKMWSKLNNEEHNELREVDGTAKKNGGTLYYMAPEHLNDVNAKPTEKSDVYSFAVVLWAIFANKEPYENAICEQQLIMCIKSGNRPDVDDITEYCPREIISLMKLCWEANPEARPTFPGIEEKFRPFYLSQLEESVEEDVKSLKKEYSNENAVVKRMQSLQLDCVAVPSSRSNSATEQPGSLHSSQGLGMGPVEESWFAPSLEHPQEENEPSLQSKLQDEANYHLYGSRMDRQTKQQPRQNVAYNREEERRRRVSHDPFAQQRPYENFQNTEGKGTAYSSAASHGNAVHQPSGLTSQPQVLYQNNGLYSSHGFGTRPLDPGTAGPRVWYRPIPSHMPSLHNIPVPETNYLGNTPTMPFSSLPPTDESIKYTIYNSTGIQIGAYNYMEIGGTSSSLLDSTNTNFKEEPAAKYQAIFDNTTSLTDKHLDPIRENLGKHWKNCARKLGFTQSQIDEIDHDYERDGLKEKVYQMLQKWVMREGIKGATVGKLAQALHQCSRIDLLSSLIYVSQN
UniProt P31749: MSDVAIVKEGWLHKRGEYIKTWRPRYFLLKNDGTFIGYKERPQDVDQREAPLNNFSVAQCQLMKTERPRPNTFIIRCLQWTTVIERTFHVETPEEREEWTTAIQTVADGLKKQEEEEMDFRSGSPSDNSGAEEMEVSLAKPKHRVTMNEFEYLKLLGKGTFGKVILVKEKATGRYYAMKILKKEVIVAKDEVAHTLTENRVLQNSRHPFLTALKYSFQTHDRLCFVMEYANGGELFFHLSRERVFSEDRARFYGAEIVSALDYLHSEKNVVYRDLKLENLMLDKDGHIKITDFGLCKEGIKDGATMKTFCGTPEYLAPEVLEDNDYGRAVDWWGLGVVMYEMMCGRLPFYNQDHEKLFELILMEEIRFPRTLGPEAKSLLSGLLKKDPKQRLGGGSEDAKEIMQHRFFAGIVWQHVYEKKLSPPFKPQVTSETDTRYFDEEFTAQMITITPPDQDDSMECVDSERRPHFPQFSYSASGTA

The list shows a part of the results. The calls rarely recur for the same compound in another form.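 Kinases, fused to nanoluciferase, were expressed in K562 cells; luminescence was measured every 4 h from 2 to 18 h as percent of control (DMSO = 100%, positive control = 0%). A time point is decreased if signal falls significantly (2 sigma). Hits were called by the authors by a rule that is not shown; the count of time points alone does not decide it.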

Compound in the first assay: CCOc1cc2ncc(C#N)c(Nc3ccc(F)c(Cl)c3)c2cc1NC(=O)/C=C/CN(C)C [Pelitinib]
The assay can be described thus: number of time points (of 5) at which kinase-Nluc abundance scored as decreased, DMSO-normalised (count); higher = more persistent destabilization. As to conditions: 2.5 µM; K562; 2-18 h.
Regarding ULK3 (UniProt Q6PHR2), the “number of time points” value came to 0.
The same measure, in the same setting: in the case of DDR1 (UniProt Q08345) it was 0; in that of CDK10 (UniProt Q15131), 0; in that of RIOK1 (UniProt Q9BRS2), 0.
With YES1 (UniProt P07947), the “number of time points” value was 0.
For the target AURKB (UniProt Q96GD4), the “number of time points” value turned out to be 0.
Turning to BRAF (UniProt P15056), the “number of time points” value was 0.
On to DYRK2 (UniProt Q92630), for which the “number of time points” value is 0.
For the target ARAF (UniProt P10398), the “number of time points” value is 0.
As to MAP2K2 (UniProt P36507), the “number of time points” value is 0.
For the target CDK2 (UniProt P24941), the “number of time points” value was determined as 0.
In the case of PDPK1 (UniProt O15530), the “number of time points” value turned out to be 0.
Regarding STK24 (UniProt Q9Y6E0), the “number of time points” value was found to be 0.
On to PAK4 (UniProt O96013), for which the “number of time points” value amounted to 0.
Same read-out and setting: in the case of ZAK (UniProt Q9NYL2) it was 0; in that of NTRK2 (UniProt Q16620), 0.
Turning to CDK3 (UniProt Q00526), the “number of time points” value stood at 0.
As for CAMK2A (UniProt Q9UQM7), the “number of time points” value came out at 0.
Take RIPK2 (UniProt O43353): the “number of time points” value stood at 0.
Turning to CAMK2G (UniProt Q13555), the “number of time points” value stood at 0.
For the target DYRK1B (UniProt Q9Y463), the “number of time points” value is 0.
Take PRKCA (UniProt P17252): the “number of time points” value stood at 0.
Consider MAPK1 (UniProt P28482), for which the “number of time points” value was found to be 0.
As to MKNK1 (UniProt Q9BUB5), the “number of time points” value worked out at 0.
For the target FGR (UniProt P09769), the “number of time points” value worked out at 0.
In the case of RIPK1 (UniProt Q13546), the “number of time points” value was found to be 0.
With AKT1 (UniProt P31749), the “number of time points” value stood at 0.
As to MAPKAPK2 (UniProt P49137), the “number of time points” value stood at 0.
Consider SRC (UniProt P12931), for which the “number of time points” value was 0.
On to PIK4CB (UniProt Q9UBF8), for which the “number of time points” value came out at 0.
On to MAP2K1 (UniProt Q02750), for which the “number of time points” value worked out at 0.

Compound in a further assay: CCOc1nc(NC(=O)Cc2cc(OC)ccc2OC)cc(N)c1C#N [JNK Inhibitor VIII]
The assay is described as above. As to conditions: 10 µM; K562; 2-18 h.
As for ULK3 (UniProt Q6PHR2), the “number of time points” value amounted to 0.
Still for that read-out and setting: next, DDR1 (UniProt Q08345): 0; CDK10 (UniProt Q15131): 0.
Same read-out and setting: next, RIOK1 (UniProt Q9BRS2): 0.
Turning to YES1 (UniProt P07947), the “number of time points” value was determined as 0.
Regarding AURKB (UniProt Q96GD4), the “number of time points” value amounted to 0.
Take BRAF (UniProt P15056): the “number of time points” value was found to be 0.
Turning to DYRK2 (UniProt Q92630), the “number of time points” value was 0.
ARAF (UniProt P10398): the “number of time points” value was found to be 0.
Take MAP2K2 (UniProt P36507): the “number of time points” value is 0.
For the target CDK2 (UniProt P24941), the “number of time points” value is 0.
In the case of PDPK1 (UniProt O15530), the “number of time points” value came to 0.
As to STK24 (UniProt Q9Y6E0), the “number of time points” value was determined as 0.
In the case of PAK4 (UniProt O96013), the “number of time points” value turned out to be 0.
With ZAK (UniProt Q9NYL2), the “number of time points” value was 0.
With NTRK2 (UniProt Q16620), the “number of time points” value is 0.
Turning to CDK3 (UniProt Q00526), the “number of time points” value is 0.
In the case of CAMK2A (UniProt Q9UQM7), the “number of time points” value worked out at 0.
As for RIPK2 (UniProt O43353), the “number of time points” value is 0.
On to CAMK2G (UniProt Q13555), for which the “number of time points” value stood at 0.
Still for that read-out and setting: next, DYRK1B (UniProt Q9Y463): 0.
Same read-out and setting: next, PRKCA (UniProt P17252): 0; MAPK1 (UniProt P28482): 0.
As to MKNK1 (UniProt Q9BUB5), the “number of time points” value is 0.
On the same count and under the same terms, in the case of FGR (UniProt P09769) it was 0; in that of RIPK1 (UniProt Q13546), 0.
For the target AKT1 (UniProt P31749), the “number of time points” value was 0.
On the same count and under the same terms, next, MAPKAPK2 (UniProt P49137): 0.
SRC (UniProt P12931): the “number of time points” value came to 0.
For the target PIK4CB (UniProt Q9UBF8), the “number of time points” value is 0.
The same measure, in the same setting: in the case of MAP2K1 (UniProt Q02750) it was 0.

Compound in a further assay: CC[C@@H]1C(=O)N(C)c2cnc(Nc3ccc(C(=O)NC4CCN(C)CC4)cc3OC)nc2N1C1CCCC1
Described as above. The settings on record: 10 µM; K562; 2-18 h.
As for ULK3 (UniProt Q6PHR2), the “number of time points” value was 0.
On the same count and under the same terms, next, DDR1 (UniProt Q08345): 1.
As to CDK10 (UniProt Q15131), the “number of time points” value was found to be 0.
On to RIOK1 (UniProt Q9BRS2), for which the “number of time points” value stood at 0.
Consider YES1 (UniProt P07947), for which the “number of time points” value is 0.
In the case of AURKB (UniProt Q96GD4), the “number of time points” value came out at 0.
In the case of BRAF (UniProt P15056), the “number of time points” value is 0.
In the case of DYRK2 (UniProt Q92630), the “number of time points” value was 2.
As for ARAF (UniProt P10398), the “number of time points” value is 0.
For the target MAP2K2 (UniProt P36507), the “number of time points” value stood at 0.
Still for that read-out and setting: in the case of CDK2 (UniProt P24941) it was 0; in that of PDPK1 (UniProt O15530), 0; in that of STK24 (UniProt Q9Y6E0), 0.
For the target PAK4 (UniProt O96013), the “number of time points” value turned out to be 0.
The same measure, in the same setting: in the case of ZAK (UniProt Q9NYL2) it was 1; in that of NTRK2 (UniProt Q16620), 1; in that of CDK3 (UniProt Q00526), 1.
For the target CAMK2A (UniProt Q9UQM7), the “number of time points” value is 0.
For the target RIPK2 (UniProt O43353), the “number of time points” value turned out to be 0.
Still for that read-out and setting: next, CAMK2G (UniProt Q13555): 0; DYRK1B (UniProt Q9Y463): 3.
Take PRKCA (UniProt P17252): the “number of time points” value was found to be 0.
Take MAPK1 (UniProt P28482): the “number of time points” value worked out at 0.
As for MKNK1 (UniProt Q9BUB5), the “number of time points” value came to 0.
As to FGR (UniProt P09769), the “number of time points” value is 0.
Regarding RIPK1 (UniProt Q13546), the “number of time points” value came to 4.
In the case of AKT1 (UniProt P31749), the “number of time points” value is 0.
For MAPKAPK2 (UniProt P49137), the “number of time points” value came out at 0.
Regarding SRC (UniProt P12931), the “number of time points” value stood at 0.
Still for that read-out and setting: in the case of PIK4CB (UniProt Q9UBF8) it was 3.
As for MAP2K1 (UniProt Q02750), the “number of time points” value stood at 0.
